Laboratory results published in patent US20190382486A1 (Pfizer, published 2019).
Numbering of substitutions follows the chain as printed. These are yes or no findings as the source states them, for the method shown. Some entries that bind do so weakly or less than the wild type. Values belong to the binder of their own block, whether it stands above or below them.

Tests used:
[1] = biological target: human CD3 epsilon subunit (CD3e), as cell surface CD3 on Jurkat cells and on naive human T cells (human) (UniProt P07766); test: flow cytometry (FACS) on Jurkat cells expressing CD3, MFI (PE) against antibody concentration in nM
[2] = biological target: human CD3 epsilon subunit (CD3e), as cell surface CD3 on Jurkat cells and on naive human T cells (human) (UniProt P07766); test: FACS on Jurkat cells expressing CD3
[3] = biological target: human CD3 epsilon subunit (CD3e), as cell surface CD3 on Jurkat cells and on naive human T cells (human) (UniProt P07766); test: FACS on Jurkat cells, compared to 2B5v6
[4] = biological target: human CD3 epsilon subunit (CD3e), as cell surface CD3 on Jurkat cells and on naive human T cells (human) (UniProt P07766); test: competition FACS on Jurkat cells
[5] = biological target: T1, CD3ed (CD3 epsilon/delta fusion protein) (human); test: SPR (Biacore), antibody captured on anti-human Fc, soluble CD3 antigen at 0-100 nM
T1 construct: Expressed in HEK293 and purified on His60 resin and by SEC; also called soluble human CD3ed antigen; hCD3ed
T1 chain: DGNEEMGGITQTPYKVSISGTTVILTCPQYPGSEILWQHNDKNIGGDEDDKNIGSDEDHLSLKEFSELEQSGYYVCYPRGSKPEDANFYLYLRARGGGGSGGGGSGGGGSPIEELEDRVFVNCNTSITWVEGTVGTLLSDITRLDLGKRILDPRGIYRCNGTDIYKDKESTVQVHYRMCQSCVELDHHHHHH

[6] = biological target: human CD3 epsilon subunit (CD3e), as cell surface CD3 on Jurkat cells and on naive human T cells (human) (UniProt P07766); test: FACS on Jurkat cells expressing CD3, compared to parental 2B5v6

B1: 2B5-0006 (2B5v6) (antibody, V domains shown)
VH: EVQLVESGGGLVQPGGSLRLSCAASGFTFSDYYMTWVRQAPGKGLEWVAFIRNQARGYTSDHNPSVKGRFTISRDNAKNSLYLQMNSLRAEDTAVYYCARDRPSYYVLDYWGQGTTVTVSS
VL: DIQMTQSPSSLSASVGDRVTITCTSSQSLFNVRSQKNYLAWYQQKPGKAPKLLIYWASTRESGVPSRFSGSGSGTDFTLTISSLQPEDFATYYCKQSYDLFTFGGGTKVEIK
notes: also called h2B5v6; parental 2B5v6
binding [1]: binds

B2: 2B5v6-0623 (antibody, V domains shown)
VH: B1 VH with N63Q
VL: B1 VL with S26D, Q35G, T59D
binding [2]: binds | binding [3]: binds | binding [1]: binds

B4: 2B5v6-0598 (antibody, V domains shown)
VH: B1 VH with A55D, N63Q
VL: B1 VL with S26D, Q35G, T59D
binding [2]: binds | binding [3]: binds | binding [1]: binds

B7: 2B5v6-0522 (antibody, V domains shown)
VH: B1 VH with N63Q
VL: B1 VL with T59D
notes: Tested as a monovalent IgG; also called 2B5-0522
binding [6]: binds

Results, then the binder that gave them:

binding [4]: binds | binding [5]: binds
B3: 2B5-0001 (2B5 antibody), h2B4 1.0/1.0T (antibody, V domains shown)
VH: B1 VH with Q54R
VL: B1 VL with Q35R

binding [6]: binds
B5: 2B5v6-0517 (antibody, V domains shown)
VH: B1 VH with N63Q
VL: B1 VL with Q35G
notes: Tested as a monovalent IgG; also called 2B5-0517

binding [6]: binds
B6: 2B5v6-0538 (antibody, V domains shown)
VH: B1 VH
VL: B1 VL with T59D
notes: Tested as a monovalent IgG; also called 2B5-0538

binding [6]: binds
B8: 2B5v6-0533 (antibody, V domains shown)
VH: B1 VH
VL: B1 VL with Q35G
notes: Tested as a monovalent IgG; also called 2B5-0533
